Among the data in PubChem BioAssay AID2685 (National Center for Advancing Translational Sciences (NCATS), 2010) are AC50 and cell number change values, retold here.

The test can be described thus: qHTS Assay for Lipid Storage Modulators in Drosophila S3 Cells.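 As to cell number change: cells counted by Cell Tracker Red CMTPX staining in the red channel.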 The conditions noted are these: BODIPY lipid droplet fluorescence, 18-24 h; for cell number change: measured here: cell count max response, cells fed with added oleic acid. In outline: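 Drosophila S3 cells loaded with oleic acid (400 uM, as added) and compounds at several concentrations; lipid droplets imaged by 488-nm laser-scanning cytometry, 500–530 nm intensity and object ratio to cell channel. Percent activity normalized to 20 uM Triacsin C.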
On the technique in general: Quantitative high-throughput screening tests each substance at several concentrations.

Setting [1] is: measured here: lipid fluorescence (Fed channel) AC50, cells fed with added oleic acid.
[2] abbreviates: measured here: cell number channel AC50, cells fed with added oleic acid.

Each structure is given as a SMILES string. The list shows a part of the results. Shown are side measurements of this screen, not its main read-out; they come without a call. Most of these compounds were active or inconclusive in the main read-out, so they are no random draw. Potencies come from curve fits of mixed quality, noted in brackets.

In the case of `COc1cccc(/C=N/NC(N)=S)c1OCc1cccc(Cl)c1`, the AC50 under setting [1] is 9.2 µM [falling, partial curve].

As to `CO/N=C(\Cn1ncc(NC2CCCCC2)c(Br)c1=O)c1ccc(Cl)cc1`, the cell number change is -5.46%. The concentration at half-maximal activity (AC50) under setting [1] is 23.1 µM [rising, single point].

As to `Cn1nc(-c2ccc(C(=O)O)cc2)c2ccccc2c1=O`, the AC50 under setting [1] is 6.51 µM [rising, single point].

Regarding `CCCC(C(=O)Nc1ccc(S(=O)(=O)Nc2ncccn2)cc1)c1ccccc1` (stereo unspecified), the cell number change was -16.2%. Moreover, under setting [1], the AC50 was 0.58 µM [falling, single point].

Turning to `CC(=O)N1N=C(c2ccc(C)cc2)OC1c1ccc(C)cc1` (stereo unspecified), the cell number change was -32.2%. The AC50 under setting [2] was 23.1 µM [falling, partial curve, poor fit]. Moreover, the AC50 under setting [1] was 14.6 µM [falling, partial curve, poor fit].

For `N#Cc1ccccc1COC(=O)c1cccnc1N`, the cell number change was -49.6%. The AC50 under setting [2] is 11.6 µM [falling, single point]. For the same compound, under setting [1], the AC50 is 20.6 µM [falling, single point].

With `Cc1ccc(-c2noc(CCCC(=O)Nc3cccnc3)n2)cc1`, the cell number change was -6.76%.

For `CCCn1c(SCC(=O)Nc2cc(Cl)ccc2OC)nc(O)cc1=O`, the cell number change worked out at 11.8%. In addition, the AC50 under setting [1] is 6.51 µM [rising, single point].

On to `COc1ccc(CCNC(=O)c2cc3ccccn3n2)c(OC)c1OC`, for which the cell number change turned out to be 5.55%.

For `O=C(c1nc2n(n1)C(c1ccc(Cl)cc1)C=C(c1ccccc1)N2)N1CCOCC1` (stereo unspecified), under setting [1], the AC50 is 0.731 µM [falling, single point].

Regarding `O=C(Nc1csc([N+](=O)[O-])c1)Nc1ccccc1Cl`, the cell number change is -15.3%.

In the case of `Cc1ccc(OCC(=O)Nc2ccc3c(c2)nc(CCN2CCCCC2)n3C)cc1`, the cell number change was -13.8%.

Regarding `Cc1cccc(OCCC(=O)Nc2ccc(F)c(F)c2)c1`, the cell number change was -33.9%. Further, the AC50 under setting [2] is 2.31 µM [rising, partial curve, poor fit].

In the case of `Cc1csc(NC(=O)CSc2nnc(-c3cc(C)on3)o2)n1`, the cell number change amounted to 20.3%. Moreover, under setting [1], the AC50 was 0.58 µM [rising, single point].

For `CCc1ccccc1NC(=O)C1CCN(S(=O)(=O)c2ccc3c(c2)N(C(C)=O)CCO3)CC1`, the cell number change amounted to 0.763%. Further, the AC50 under setting [1] is 18.4 µM [falling, partial curve].

For the compound `COc1ccc(NC(=O)C(=O)NCCN2CCN(C(=O)C(c3ccccc3)c3ccccc3)CC2)cc1`, the AC50 under setting [1] is 0.58 µM [rising, full curve].

For the compound `COc1ccc(NC(=O)O/N=C/c2ccc(N(C)C)cc2)cc1`, the cell number change amounted to 20.6%. Further, the AC50 under setting [1] is 3.26 µM [rising, full curve, poor fit].

In the case of `CN(CC(=O)Nc1cccc(F)c1)C(=O)c1cccnc1Sc1ccccc1`, the cell number change came out at 41.4%.

On to `O=C(Nc1nnc(-c2ccccc2F)s1)c1ccccc1F`, for which the cell number change amounted to 46.8%. The AC50 under setting [2] is 2.91 µM [rising, full curve].

Turning to `O=C(Nc1ccc(N2CCCCC2)cc1)C(Cl)c1ccccc1` (stereo unspecified), the cell number change is -26.1%. Moreover, the concentration at half-maximal activity (AC50) under setting [2] is 0.058 µM [falling, full curve].

For `Cc1ccc(S(=O)(=O)N2CCOCC2)cc1C(=O)NCc1ccccc1CN1CCCC1`, the cell number change is 4.39%. Further, the AC50 under setting [1] was 16.4 µM [falling, partial curve].

With `COc1ccc(C(=O)NNC(=O)OC(C)(C)C)cc1`, the cell number change is -11%. In addition, the AC50 under setting [1] was 6.51 µM [falling, single point].

Take `CCOC(=O)N1CCc2c(sc3c2c(=O)n(Cc2ccccc2)c(=O)n3Cc2cccc(C)c2)C1`: the cell number change is 8.22%.

Turning to `COc1cn(-c2ccccc2)nc1C(=O)Nc1ccc(C)cc1Cl`, the cell number change is 22.6%.

Turning to `CC1c2[nH]c3ccccc3c2C[C@H]2C(=O)N(CCCN(C)C)CC(=O)N12` (stereo partly specified), the cell number change was -4.25%. Also, under setting [1], the AC50 is 20.6 µM [rising, partial curve].

Take `CCCNC(=O)c1ccc(N2CCC3(CC2)CC(c2ccc(Cl)cc2)=NO3)c([N+](=O)[O-])c1`: under setting [1], the AC50 was 29.1 µM [falling, single point].

Turning to `Cc1cccc(NC(=O)CN2C(=O)N/C(=C/c3ccc(-c4cccc(C(=O)O)c4C)o3)C2=O)c1`, the cell number change is -50%. Moreover, the AC50 under setting [2] was 29.1 µM [falling, single point]. Further, the AC50 under setting [1] was 29.1 µM [falling, single point].

Take `Cc1cccc(OCC(=O)NNC(=O)CCc2ccccc2)c1`: the cell number change was determined as 10.6%. The AC50 under setting [1] was 0.164 µM [rising, partial curve].

For the compound `CCc1cc2c(=O)[nH]c(CC(N)=O)nc2s1`, the cell number change was -36%. Moreover, the AC50 under setting [1] was 25.9 µM [falling, single point].

Consider `CCOC(=O)N1CCN(C(=O)C2CCN(c3ncnc4c3sc3cccc(F)c34)CC2)CC1`, for which the cell number change was -13.2%.

Regarding `CCOC(=O)N1CCN(c2c(NCCCOC(C)C)c(=O)c2=O)CC1`, the AC50 under setting [1] was 0.651 µM [falling, single point].

For the compound `Cc1ccc(-n2c(C)cc(/C=N/NC(=O)Cn3c4ccccc4c(=O)c4ccccc43)c2C)cc1`, the cell number change was -16.3%.

With `O=C(Nc1cccc(S(=O)(=O)N2CCCCC2)c1)c1ccc2c(c1)OCO2`, the cell number change was -50%. Further, under setting [1], the AC50 was 0.206 µM [rising, full curve, poor fit].

Turning to `COC(=O)c1cccc2c1NC(=O)C2=O`, the cell number change worked out at 14.2%. For the same compound, the AC50 under setting [2] was 0.0366 µM [rising, full curve, poor fit]. Moreover, the AC50 under setting [1] was 0.00517 µM [rising, full curve, poor fit].

As for `C/C(=N\NC(=O)c1nn(C)c(C)c1Br)c1ccc(NC(=O)c2ccoc2C)cc1`, the cell number change was -34.2%. For the same compound, the AC50 under setting [2] was 20.6 µM [falling, single point]. For the same compound, the AC50 under setting [1] was 29.1 µM [falling, single point].

As to `CC1=C(C(N)=O)C(c2ccc(F)cc2)n2nc(CCCO)nc2N1` (stereo unspecified), the cell number change was 20.4%.

With `COc1ccccc1CNC(=O)c1cccc(S(=O)(=O)N2CCN(C)CC2)c1`, the cell number change was -2.6%. For the same compound, the AC50 under setting [2] was 2.06 µM [falling, single point]. Moreover, under setting [1], the AC50 is 0.0058 µM [falling, partial curve, poor fit].

In the case of `O=C(Nc1nccs1)c1cc2sccc2n1Cc1ccc(Cl)cc1`, the cell number change is -20.2%. Under setting [1], the AC50 is 16.4 µM [rising, single point].

Consider `N#C/C(=C/c1ccncc1)c1nc2ccccc2c(=O)[nH]1`, for which the AC50 under setting [1] was 1.84 µM [rising, partial curve].

For the compound `COc1ccc(Cl)cc1NC(=O)CC(=O)Nc1cc(Cl)ccc1OC`, the cell number change came out at 58.1%. Also, under setting [2], the AC50 was 29.1 µM [rising, single point]. The concentration at half-maximal activity (AC50) under setting [1] was 29.1 µM [rising, single point].

`O=C(Cc1noc2ccccc12)Nc1ccccn1`: the cell number change came to 52%. For the same compound, under setting [2], the AC50 is 29.1 µM [rising, single point]. Also, the AC50 under setting [1] was 29.1 µM [rising, single point].

For `CCCc1cc2nnc(SCC(=O)N(C)C3CCCCC3)n2c(N)n1`, the cell number change was determined as 7.83%. Moreover, under setting [1], the AC50 was 0.366 µM [rising, full curve].

As for `Cc1cccc(-c2noc(CCC(=O)NC3CCCCC3)n2)c1`, the cell number change was found to be 39.9%. Also, under setting [2], the AC50 was 7.31 µM [rising, full curve, poor fit]. Under setting [1], the AC50 is 20.6 µM [rising, single point].

As to `COc1cc(NC(=O)CN(C)S(=O)(=O)c2ccc(-c3ccc(=O)[nH]n3)s2)cc(OC)c1`, the cell number change amounted to 41.2%. Also, the AC50 under setting [2] was 18.4 µM [rising, single point].

Regarding `Cc1ccc(-n2nc(C)c3c(C)c(CCC(=O)NCC4CCCO4)c(=O)n(C)c32)cc1` (stereo unspecified), the cell number change worked out at 3.99%.

As to `N/C(=N\OC(=O)CC1CCCCC1)c1ccncc1`, the cell number change was found to be 21.5%. Also, under setting [1], the AC50 was 6.51 µM [rising, partial curve].

In the case of `CCSc1nnc(NC(=O)C2CC(=O)N(Cc3ccccc3)C2)s1` (stereo unspecified), the cell number change came out at 38.1%. In addition, the AC50 under setting [2] is 23.1 µM [rising, single point]. Under setting [1], the AC50 is 20.6 µM [rising, single point].

`O=C(NCc1cccc(Cl)c1)C1CCC(=O)N(CCCN2CCOCC2)C1` (stereo unspecified): the cell number change was determined as 15.1%. Also, the AC50 under setting [1] was 6.51 µM [rising, single point].

`CCCOc1c(Cl)cc(C(=O)NC)cc1OC`: the cell number change is -20.2%. Moreover, the AC50 under setting [2] was 0.058 µM [falling, full curve, poor fit]. Under setting [1], the AC50 is 0.651 µM [falling, partial curve, poor fit].

For the compound `Cc1cc(C)cc(NC(=O)CSc2nnc(C3CC3)n2CC2CCCO2)c1` (stereo unspecified), the AC50 under setting [1] was 3.66 µM [rising, partial curve].

Take `COC(=O)c1ccc(NC(=O)Nc2ccc(F)c(Cl)c2)cc1`: the cell number change is -64.1%. The AC50 under setting [2] is 20.6 µM [falling, partial curve].

As to `COc1cccc(OC(=O)c2cc3ccccc3oc2=O)c1`, the cell number change was -9.16%. Moreover, the AC50 under setting [2] was 1.16 µM [rising, full curve].

For the compound `CCN(CC)c1ccc(C2N(C(=O)N3CCOCC3)CCN2S(=O)(=O)c2ccc(C)cc2)cc1` (stereo unspecified), the cell number change worked out at 17.6%. Further, under setting [1], the AC50 was 0.58 µM [rising, single point].

Regarding `Cc1ccccc1C(=O)Nc1ccnc(-c2ccncc2)n1`, the cell number change was 34.7%.

With `CCC1CCCCN1Cc1ccc(OC)c(C)c1C` (stereo unspecified), the cell number change was -77.6%. The AC50 under setting [2] was 16.4 µM [falling, partial curve].

In the case of `CCO/N=C/C(=O)Nc1ccc(F)cc1F`, the cell number change was -21%. Besides, the AC50 under setting [1] is 29.1 µM [falling, single point].

Take `Cc1ccc(Cn2c(=O)n(C)c(=O)c3sccc32)cc1`: the cell number change was -12.5%. Besides, under setting [1], the AC50 is 1.3 µM [rising, full curve].

As for `Cc1ccc(C)c(OCC(=O)N/N=C/c2c(C)nn(-c3ccccc3)c2Cl)c1`, the cell number change is -19.9%. In addition, the AC50 under setting [2] is 3.66 µM [rising, partial curve, poor fit]. Besides, the AC50 under setting [1] is 0.13 µM [rising, full curve, poor fit].

For the compound `CCOC(=O)c1c(C)cc(=O)oc1C`, the cell number change is -71%. In addition, the AC50 under setting [2] was 32.6 µM [falling, partial curve]. The AC50 under setting [1] was 20.6 µM [falling, partial curve].

Consider `CCOc1ccccc1CNc1nc2nc3c(c(=O)n2[nH]1)CCC3`, for which the cell number change was 3.52%. Further, the AC50 under setting [1] was 6.51 µM [falling, single point].

For the compound `CC(=Nc1ccccc1)C1=C(O)CSC1=O`, the cell number change was 7.11%.

For the compound `CN(CC(=O)Nn1cnnc1)S(=O)(=O)c1ccc(Br)cc1`, the cell number change was -7.67%.

With `CCOc1ccc(/C=N/N2C(C)CCCC2C)cc1` (stereo unspecified), the cell number change is -21.3%.

Broadly, the AC50 is the concentration at which the activity in the assay is half-maximal.
